Results are given in words; binding and its absence hold for the method and conditions named. Binding seen in cells or lysates may run through a third protein. Here binding means that the protein was enriched with, or labelled near, the bait; the list need not be complete.
Biological target: OneSTrEP-GlRac (Giardia lamblia) (UniProt A8BPK1)
Assay: affinity purification with mass spectrometry; OS-GlRac lysates on Strep-Tactin beads, eluates by LC-MS/MS; trophozoites and encysting cells at 8 h p.i.e. (two-step protocol); triplicate; wild type cells as control for non-specific binding to the beads

Sequences of proteins named here, by UniProt entry; tags and fusion partners are left off. A change or cut given only in a name is not applied to a line headed by its entry.
UniProt A8BPK1: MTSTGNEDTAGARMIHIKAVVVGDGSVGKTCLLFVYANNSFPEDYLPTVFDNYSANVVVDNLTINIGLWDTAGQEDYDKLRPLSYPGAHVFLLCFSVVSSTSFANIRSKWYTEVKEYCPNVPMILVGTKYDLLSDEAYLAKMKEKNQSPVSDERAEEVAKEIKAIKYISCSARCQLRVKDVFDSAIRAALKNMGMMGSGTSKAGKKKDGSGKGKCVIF
UniProt A8B4T8: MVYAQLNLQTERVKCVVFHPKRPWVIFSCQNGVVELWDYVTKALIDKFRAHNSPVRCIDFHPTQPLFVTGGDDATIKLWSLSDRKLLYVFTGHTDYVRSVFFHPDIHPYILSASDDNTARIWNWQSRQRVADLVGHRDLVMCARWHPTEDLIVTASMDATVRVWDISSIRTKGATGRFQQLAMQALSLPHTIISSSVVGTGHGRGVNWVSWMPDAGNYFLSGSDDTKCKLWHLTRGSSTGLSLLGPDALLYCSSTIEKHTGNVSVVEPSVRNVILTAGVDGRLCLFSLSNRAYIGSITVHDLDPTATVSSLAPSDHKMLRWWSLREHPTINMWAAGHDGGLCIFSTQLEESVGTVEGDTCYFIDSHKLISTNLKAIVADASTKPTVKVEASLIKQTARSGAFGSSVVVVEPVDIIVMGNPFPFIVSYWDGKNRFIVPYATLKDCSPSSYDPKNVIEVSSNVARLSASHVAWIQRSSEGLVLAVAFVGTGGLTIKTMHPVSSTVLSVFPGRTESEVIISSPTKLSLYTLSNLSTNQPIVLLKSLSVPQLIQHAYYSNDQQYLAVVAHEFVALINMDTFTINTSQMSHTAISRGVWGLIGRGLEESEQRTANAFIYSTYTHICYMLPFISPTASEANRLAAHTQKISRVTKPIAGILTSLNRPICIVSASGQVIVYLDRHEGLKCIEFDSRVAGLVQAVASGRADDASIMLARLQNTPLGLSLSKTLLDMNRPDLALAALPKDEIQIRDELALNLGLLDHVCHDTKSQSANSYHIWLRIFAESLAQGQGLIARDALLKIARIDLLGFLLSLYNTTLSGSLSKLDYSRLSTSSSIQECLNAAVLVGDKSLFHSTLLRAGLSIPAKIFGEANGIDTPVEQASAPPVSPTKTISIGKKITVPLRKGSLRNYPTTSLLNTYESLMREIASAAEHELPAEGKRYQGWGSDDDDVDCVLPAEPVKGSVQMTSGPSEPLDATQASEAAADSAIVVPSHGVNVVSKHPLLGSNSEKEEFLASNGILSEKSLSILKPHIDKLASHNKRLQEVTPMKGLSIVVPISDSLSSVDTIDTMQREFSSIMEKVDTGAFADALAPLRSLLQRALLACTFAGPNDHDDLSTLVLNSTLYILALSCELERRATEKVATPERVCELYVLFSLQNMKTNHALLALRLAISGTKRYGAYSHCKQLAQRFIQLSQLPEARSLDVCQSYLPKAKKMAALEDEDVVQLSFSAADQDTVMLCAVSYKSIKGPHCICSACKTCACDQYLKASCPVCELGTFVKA
UniProt A8BDQ0: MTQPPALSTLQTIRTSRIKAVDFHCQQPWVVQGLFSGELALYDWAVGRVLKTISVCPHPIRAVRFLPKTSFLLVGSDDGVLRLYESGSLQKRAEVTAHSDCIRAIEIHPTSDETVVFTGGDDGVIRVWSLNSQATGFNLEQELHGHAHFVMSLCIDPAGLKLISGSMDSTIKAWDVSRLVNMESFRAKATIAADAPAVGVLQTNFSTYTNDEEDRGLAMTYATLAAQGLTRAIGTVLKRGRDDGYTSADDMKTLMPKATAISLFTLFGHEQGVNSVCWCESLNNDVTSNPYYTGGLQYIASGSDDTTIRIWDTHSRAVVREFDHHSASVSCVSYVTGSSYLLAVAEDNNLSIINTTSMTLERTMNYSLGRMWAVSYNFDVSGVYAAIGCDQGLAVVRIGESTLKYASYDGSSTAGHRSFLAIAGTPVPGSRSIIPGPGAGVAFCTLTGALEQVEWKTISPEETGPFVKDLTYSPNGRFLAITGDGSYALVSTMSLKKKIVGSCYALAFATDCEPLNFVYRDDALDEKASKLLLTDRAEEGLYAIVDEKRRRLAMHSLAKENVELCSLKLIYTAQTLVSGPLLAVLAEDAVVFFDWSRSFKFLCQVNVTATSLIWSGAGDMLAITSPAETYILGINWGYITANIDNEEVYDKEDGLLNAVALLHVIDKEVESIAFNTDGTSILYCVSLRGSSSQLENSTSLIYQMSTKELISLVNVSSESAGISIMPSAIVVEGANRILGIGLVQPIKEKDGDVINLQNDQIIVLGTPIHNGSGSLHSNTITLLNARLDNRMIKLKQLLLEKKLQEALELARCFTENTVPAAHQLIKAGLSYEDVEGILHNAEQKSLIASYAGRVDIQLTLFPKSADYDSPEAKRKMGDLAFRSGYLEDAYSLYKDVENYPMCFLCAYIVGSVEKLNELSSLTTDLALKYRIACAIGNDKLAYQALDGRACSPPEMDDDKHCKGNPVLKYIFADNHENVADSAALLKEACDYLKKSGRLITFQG
UniProt A0A644F2H1: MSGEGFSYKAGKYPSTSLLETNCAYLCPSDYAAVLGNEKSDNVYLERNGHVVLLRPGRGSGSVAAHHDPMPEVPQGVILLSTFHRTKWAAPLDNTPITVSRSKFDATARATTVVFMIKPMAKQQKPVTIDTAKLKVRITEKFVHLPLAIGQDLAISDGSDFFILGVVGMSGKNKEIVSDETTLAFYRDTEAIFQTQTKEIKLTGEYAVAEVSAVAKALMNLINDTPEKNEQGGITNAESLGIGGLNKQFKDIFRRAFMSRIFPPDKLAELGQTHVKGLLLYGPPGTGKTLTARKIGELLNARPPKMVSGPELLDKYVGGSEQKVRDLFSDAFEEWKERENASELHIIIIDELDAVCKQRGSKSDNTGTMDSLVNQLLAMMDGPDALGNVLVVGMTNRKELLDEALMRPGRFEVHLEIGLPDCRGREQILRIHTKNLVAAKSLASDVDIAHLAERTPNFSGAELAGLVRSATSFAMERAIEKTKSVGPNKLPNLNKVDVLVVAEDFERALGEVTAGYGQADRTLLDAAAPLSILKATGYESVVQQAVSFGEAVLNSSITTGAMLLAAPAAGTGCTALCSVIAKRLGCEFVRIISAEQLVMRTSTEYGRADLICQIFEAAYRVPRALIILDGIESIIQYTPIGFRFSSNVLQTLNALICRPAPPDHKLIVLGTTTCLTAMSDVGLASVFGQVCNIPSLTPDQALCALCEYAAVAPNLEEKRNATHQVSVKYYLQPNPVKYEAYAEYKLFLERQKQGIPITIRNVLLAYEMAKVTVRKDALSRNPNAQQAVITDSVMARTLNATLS
UniProt E2RTZ2: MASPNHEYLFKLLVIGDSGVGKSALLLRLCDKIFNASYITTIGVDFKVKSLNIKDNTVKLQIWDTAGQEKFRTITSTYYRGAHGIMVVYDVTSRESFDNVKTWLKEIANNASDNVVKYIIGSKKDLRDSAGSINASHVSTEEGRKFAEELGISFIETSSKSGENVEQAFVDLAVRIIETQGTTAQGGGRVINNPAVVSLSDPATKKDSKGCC
UniProt E2RU17: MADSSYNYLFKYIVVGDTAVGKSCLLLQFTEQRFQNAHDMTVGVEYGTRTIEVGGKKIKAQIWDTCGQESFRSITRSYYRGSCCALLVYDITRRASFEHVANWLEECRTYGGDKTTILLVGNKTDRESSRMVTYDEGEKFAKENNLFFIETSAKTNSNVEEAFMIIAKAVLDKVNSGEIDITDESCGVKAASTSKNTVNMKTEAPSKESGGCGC
UniProt A0A644F713: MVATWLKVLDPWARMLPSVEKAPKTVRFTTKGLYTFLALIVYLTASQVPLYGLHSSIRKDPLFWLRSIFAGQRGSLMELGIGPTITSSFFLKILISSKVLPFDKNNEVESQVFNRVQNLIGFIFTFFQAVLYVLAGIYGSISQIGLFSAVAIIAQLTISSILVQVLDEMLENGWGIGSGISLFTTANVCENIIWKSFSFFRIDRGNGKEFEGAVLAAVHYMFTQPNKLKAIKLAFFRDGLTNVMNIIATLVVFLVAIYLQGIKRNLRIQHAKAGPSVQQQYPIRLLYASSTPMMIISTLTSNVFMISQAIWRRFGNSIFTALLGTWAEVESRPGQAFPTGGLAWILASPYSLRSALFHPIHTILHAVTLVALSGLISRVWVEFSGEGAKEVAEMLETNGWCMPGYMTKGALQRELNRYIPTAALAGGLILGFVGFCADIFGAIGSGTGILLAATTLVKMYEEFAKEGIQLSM
UniProt A0A644F5E3: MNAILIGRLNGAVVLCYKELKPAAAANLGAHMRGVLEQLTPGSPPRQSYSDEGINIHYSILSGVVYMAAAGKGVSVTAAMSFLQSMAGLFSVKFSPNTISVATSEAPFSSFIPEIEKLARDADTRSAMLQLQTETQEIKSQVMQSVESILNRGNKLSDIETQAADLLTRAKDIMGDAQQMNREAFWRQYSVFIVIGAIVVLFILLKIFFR
UniProt A8BAR6: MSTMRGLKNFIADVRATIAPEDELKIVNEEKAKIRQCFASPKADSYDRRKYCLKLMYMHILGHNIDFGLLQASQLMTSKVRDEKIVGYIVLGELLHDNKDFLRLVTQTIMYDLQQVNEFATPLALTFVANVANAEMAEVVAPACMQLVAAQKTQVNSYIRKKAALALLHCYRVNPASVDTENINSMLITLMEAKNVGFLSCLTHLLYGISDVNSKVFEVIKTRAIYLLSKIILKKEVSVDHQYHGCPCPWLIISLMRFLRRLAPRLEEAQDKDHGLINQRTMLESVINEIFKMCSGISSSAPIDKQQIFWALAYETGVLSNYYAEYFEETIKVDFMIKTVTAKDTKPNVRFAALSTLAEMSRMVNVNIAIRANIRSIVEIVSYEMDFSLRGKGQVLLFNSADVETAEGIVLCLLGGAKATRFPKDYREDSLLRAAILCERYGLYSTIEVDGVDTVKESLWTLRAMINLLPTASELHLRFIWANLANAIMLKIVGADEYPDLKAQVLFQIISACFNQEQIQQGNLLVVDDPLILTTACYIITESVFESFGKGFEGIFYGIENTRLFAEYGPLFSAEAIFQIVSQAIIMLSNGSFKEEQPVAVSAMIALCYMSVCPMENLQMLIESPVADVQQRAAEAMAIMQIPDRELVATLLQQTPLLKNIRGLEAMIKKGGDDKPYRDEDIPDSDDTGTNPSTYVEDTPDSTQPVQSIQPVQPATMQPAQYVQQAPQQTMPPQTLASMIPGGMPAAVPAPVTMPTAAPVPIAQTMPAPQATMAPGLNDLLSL

binding, binds:
GlCoatomer α subunit (from UniProt A8B4T8), GlCoatomer β′ subunit (from UniProt A8BDQ0), GlNSF (from UniProt A0A644F2H1), GlRab1a (from UniProt E2RTZ2), GlRab2a (from UniProt E2RU17), GlSec61-α (from UniProt A0A644F713), Glv-SNARE (from UniProt A0A644F5E3), Glα-adaptin (from UniProt A8BAR6)

Source: article PMC8111296
